Experimental data as given in publication PMC12341946.
No constants are given. Whether binding was seen depends on the method and setting. In cells and extracts the contact can be indirect. Some entries that bind do so weakly or less than the wild type. For part of these data: Tags and fused reporters may be left off the sequences shown.

T1: Mip6W442A-GFP (S. cerevisiae) (UniProt P38760)
T1 sequence: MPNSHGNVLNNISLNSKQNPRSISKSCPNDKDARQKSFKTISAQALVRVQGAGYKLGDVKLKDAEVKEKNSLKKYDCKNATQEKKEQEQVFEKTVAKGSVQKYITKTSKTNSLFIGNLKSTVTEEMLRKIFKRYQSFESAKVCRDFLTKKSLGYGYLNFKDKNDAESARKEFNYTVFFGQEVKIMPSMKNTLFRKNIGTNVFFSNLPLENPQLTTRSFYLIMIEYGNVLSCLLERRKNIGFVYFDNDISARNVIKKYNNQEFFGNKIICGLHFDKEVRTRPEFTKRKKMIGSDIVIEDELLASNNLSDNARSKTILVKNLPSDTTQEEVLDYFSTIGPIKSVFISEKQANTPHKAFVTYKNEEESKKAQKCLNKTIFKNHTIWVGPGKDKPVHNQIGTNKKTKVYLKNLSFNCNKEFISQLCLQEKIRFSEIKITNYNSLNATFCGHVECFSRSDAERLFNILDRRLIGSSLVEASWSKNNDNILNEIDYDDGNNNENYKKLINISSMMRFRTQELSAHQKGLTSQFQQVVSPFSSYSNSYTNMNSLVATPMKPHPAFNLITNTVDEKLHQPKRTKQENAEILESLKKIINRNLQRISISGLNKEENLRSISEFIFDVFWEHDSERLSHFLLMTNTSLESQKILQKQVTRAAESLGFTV

T2: Mip6-GFP (S. cerevisiae) (UniProt P38760)
T2 sequence: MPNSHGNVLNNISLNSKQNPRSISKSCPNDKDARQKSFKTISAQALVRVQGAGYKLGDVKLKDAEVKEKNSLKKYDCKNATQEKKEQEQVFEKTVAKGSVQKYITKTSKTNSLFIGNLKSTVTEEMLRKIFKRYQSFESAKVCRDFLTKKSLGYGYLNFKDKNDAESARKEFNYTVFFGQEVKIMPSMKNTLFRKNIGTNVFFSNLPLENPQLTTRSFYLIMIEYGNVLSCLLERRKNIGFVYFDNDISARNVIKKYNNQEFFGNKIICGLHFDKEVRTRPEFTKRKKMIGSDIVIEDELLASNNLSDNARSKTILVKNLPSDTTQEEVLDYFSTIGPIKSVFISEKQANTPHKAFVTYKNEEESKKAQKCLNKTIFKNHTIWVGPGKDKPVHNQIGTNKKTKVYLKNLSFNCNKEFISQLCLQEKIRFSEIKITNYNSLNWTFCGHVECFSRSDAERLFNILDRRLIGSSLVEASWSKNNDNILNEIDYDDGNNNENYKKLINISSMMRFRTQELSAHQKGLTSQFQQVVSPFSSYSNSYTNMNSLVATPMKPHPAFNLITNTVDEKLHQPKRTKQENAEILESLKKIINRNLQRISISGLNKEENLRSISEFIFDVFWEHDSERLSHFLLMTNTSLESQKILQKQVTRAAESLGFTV

T3: Mip6-TAP (S. cerevisiae) (UniProt P38760)
T3 sequence: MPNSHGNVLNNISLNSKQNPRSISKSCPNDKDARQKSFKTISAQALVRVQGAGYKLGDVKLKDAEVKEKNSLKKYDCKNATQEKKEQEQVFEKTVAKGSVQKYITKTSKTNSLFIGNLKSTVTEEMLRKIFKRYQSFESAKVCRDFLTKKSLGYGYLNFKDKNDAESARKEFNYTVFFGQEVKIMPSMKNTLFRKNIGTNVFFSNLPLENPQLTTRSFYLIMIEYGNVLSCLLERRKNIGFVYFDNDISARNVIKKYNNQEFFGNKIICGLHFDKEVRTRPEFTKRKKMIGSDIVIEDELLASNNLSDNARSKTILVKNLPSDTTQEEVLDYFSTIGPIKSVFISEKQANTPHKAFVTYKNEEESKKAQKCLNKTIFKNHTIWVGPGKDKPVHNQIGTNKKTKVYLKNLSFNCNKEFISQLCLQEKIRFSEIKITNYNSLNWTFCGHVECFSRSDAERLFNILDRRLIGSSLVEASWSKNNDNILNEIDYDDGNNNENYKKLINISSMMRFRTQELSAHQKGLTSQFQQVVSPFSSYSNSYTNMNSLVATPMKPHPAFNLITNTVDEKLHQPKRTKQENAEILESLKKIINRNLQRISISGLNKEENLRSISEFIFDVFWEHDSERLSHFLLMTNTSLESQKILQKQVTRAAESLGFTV


What was measured:
[1] = molecular target: T1, Mip6W442A-GFP (S. cerevisiae); experiment: co-IP; GFP-Trap beads (printed GFT-TRAP, ChromoTek) on yeast lysate, 1 h at 4°C; lysis buffer 10 mM Tris-HCl pH 7.5, 150 mM NaCl, 0.5 mM EDTA, 0.5% NP-40; cells under optimal conditions or after heat shock at 39°C for 20 min; Western blot with α-GFP and α-TAP
Mip6-GFP (S. cerevisiae) = molecular target: T2, Mip6-GFP (S. cerevisiae); experiment: as above
Mip6-TAP (S. cerevisiae) = molecular target: T3, Mip6-TAP (S. cerevisiae); experiment: pull-down; Mip6-TAP pulldown; method and way of identification not described in the text (Supplementary File 4)

| binding [1] | binding (Mip6-GFP (S. cerevisiae)) | binding (Mip6-TAP (S. cerevisiae)) | Binder |
| --- | --- | --- | --- |
| binds | binds |  | Rpd3-TAP (enzyme, UniProt P32561 1-433) MVYEATPFDPITVKPSDKRRVAYFYDADVGNYAYGAGHPMKPHRIRMAHSLIMNYGLYKKMEIYRAKPATKQEMCQFHTDEYIDFLSRVTPDNLEMFKRESVKFNVGDDCPVFDGLYEYCSISGGGSMEGAARLNRGKCDVAVNYAGGLHHAKKSEASGFCYLNDIVLGIIELLRYHPRVLYIDIDVHHGDGVEEAFYTTDRVMTCSFHKYGEFFPGTGELRDIGVGAGKNYAVNVPLRDGIDDATYRSVFEPVIKKIMEWYQPSAVVLQCGGDSLSGDRLGCFNLSMEGHANCVNYVKSFGIPMMVVGGGGYTMRNVARTWCFETGLLNNVVLDKDLPYNEYYEYYGPDYKLSVRPSNMFNVNTPEYLDKVMTNIFANLENTKYAPSVQLNHTPRDAEDLGDVEEDSAEAKDTKGGSQYARDLHVEHDNEFY |
|  |  | binds | Rpd3 (enzyme, UniProt P32561 1-433) MVYEATPFDPITVKPSDKRRVAYFYDADVGNYAYGAGHPMKPHRIRMAHSLIMNYGLYKKMEIYRAKPATKQEMCQFHTDEYIDFLSRVTPDNLEMFKRESVKFNVGDDCPVFDGLYEYCSISGGGSMEGAARLNRGKCDVAVNYAGGLHHAKKSEASGFCYLNDIVLGIIELLRYHPRVLYIDIDVHHGDGVEEAFYTTDRVMTCSFHKYGEFFPGTGELRDIGVGAGKNYAVNVPLRDGIDDATYRSVFEPVIKKIMEWYQPSAVVLQCGGDSLSGDRLGCFNLSMEGHANCVNYVKSFGIPMMVVGGGGYTMRNVARTWCFETGLLNNVVLDKDLPYNEYYEYYGPDYKLSVRPSNMFNVNTPEYLDKVMTNIFANLENTKYAPSVQLNHTPRDAEDLGDVEEDSAEAKDTKGGSQYARDLHVEHDNEFY |
